The test system of test [1] is free L. donovani promastigotes. Put plainly: Resazurin reduction assay, L. donovani promastigotes. The class given is cell-based. Conditions: Leishmania donovani, read-out: inhibition of free L. donovani promastigotes.
In test [2] the test system is Human Embryonic Kidney (HEK 293) cells. Conditions: read-out: HEK 293 IC50; previously published; ref Engel et al., 2015; cited from earlier work.
Test [3] concerns human Neonatal Foreskin Fibroblast (NFF) cells. Conditions: read-out: NFF IC50; previously published; ref Engel et al., 2015; cited from earlier work.
The subject of a further test is P. knowlesi A1H.1. The test can be described thus: P. knowlesi A1H.1 3H-hypoxanthine incorporation growth inhibition assay. The class given is cell-based. Conditions: Plasmodium knowlesi, 48 h, read-out: P. knowlesi A1H.1 IC50.

Among the data in paper PMC5241585 (International Journal for Parasitology: Drugs and Drug …, 2016) are inhibition and IC50 values, retold here.

As to `O=C(CCCCCCC(=O)Nc1ccccc1)NO` [Vorinostat], in test [1], the inhibition at 20 µM was in the range of 20 to 35%. Moreover, the concentration for half-maximal inhibition (IC50) in test [2] is 5.17 µM; in test [3] it was 5.5 µM; in the test on P. knowlesi A1H.1, 0.37 µM.

The inhibition is how much of the control response was suppressed. The IC50 is the concentration at which inhibition is half-maximal.
